Source: PubChem BioAssay AID2685 (National Center for Advancing Translational Sciences (NCATS), 2010)
About 2,100 (0.66%) of roughly 320,000 compounds were called active. Inconclusive results, whose numbers are uncertain, are shown with a selection of clear calls. The call rests on the fitted dose curve; in most records, active means well fitted inhibition curve with a large enough effect in the signal ratio, with a control signal flat (not every such curve was filed as active); inconclusive means small, poorly fitted or top-dose-only effect, or effect the other way, or a change in a side signal; inactive means flat fitted curve, though single readings scatter; the % refers to the signal ratio. Potencies beside an inconclusive call are fits to weak or partial responses and may not hold up.

experiment: qHTS Assay for Lipid Storage Modulators in Drosophila S3 Cells; settings: BODIPY lipid droplet fluorescence, 18-24 h, cells fed with added oleic acid; lipid storage change, negative = inhibition: at 46.1 µM (top of the series) unless noted
Procedure, shortened: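 Laser-scanning cytometry quantifies lipid droplet accumulation (500–530 nm total intensity; droplet/cell object ratio) in oleic acid-fed (400 uM added) Drosophila S3 cells treated with a concentration series. 20 uM Triacsin C defined 100% inhibition.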
On the % scale 0 is the no-effect control and ±100 the full control effect; potency means the concentration at half of the fitted maximal effect.

| SMILES | lipid storage change, negative = inhibition | Potency | outcome |
| --- | --- | --- | --- |
| Cc1cc(C)n(-c2nc3c(c(=O)[nH]c(=O)n3C)n2C(C)C)n1 | inconclusive: 23.8% | – | – |
| O=C(/C=C/c1cccc([N+](=O)[O-])c1)Nc1cccc(NC(=O)c2cccs2)c1 | – | inconclusive: 1.46 µM [activator, partial curve] | – |
| Cc1cc(C)nc(-n2nc(C)c(Oc3ccccc3O)c2C)n1 | inconclusive: -11.2% | – | – |
| CN1CCN(CCCNC(=O)Cn2nc(-c3ccccc3)ccc2=O)CC1 | – | inconclusive: 0.092 µM [falling, full curve, poor fit] | – |
| COc1ccc(CC(=O)NNC(=O)c2nn(Cc3ccccc3)c(=O)c3ccccc23)cc1OC | – | inconclusive: 29.1 µM [cytotoxic, single point] | – |
| NNC(=O)c1cc2c(ccc3ccccc32)o1 | – | inconclusive: 6.51 µM [falling, single point] | – |
| CN1CCN(S(=O)(=O)c2ccc(-c3ccc(S(=O)(=O)N4CCN(C)CC4)cc3)cc2)CC1 | inconclusive: -37.8% | – | – |
| ClCc1c2ccccc2cc2ccccc12 | inconclusive: 21.7% | – | – |
| Cc1noc(C)c1CSc1nnc(-c2ccccc2)n1Cc1ccco1 | inconclusive: -54% | – | – |
| CC(C)C(=O)Nc1nnc(S(=O)(=O)N2c3ccccc3CC2C)s1 (stereo not given) | inconclusive: 48.7% | – | – |
| CCN(CC)CCCNC(=O)Cn1cnc2sc(C)c(S(=O)(=O)N3CCC(C)CC3)c2c1=O | inconclusive: 37.9% | – | – |
| COc1ccc(/C(N)=N/OC(=O)c2cc(-c3ccccc3)nc3ccccc23)cc1 | inconclusive: 10.4% | – | – |
| COc1ccc(OC)c(C2=Nn3c(nnc3C3CCCCC3)SC2)c1 | inconclusive: 21.3% | – | – |
| CCOc1cc2[nH]c(=S)n(Cc3ccc(C(=O)NCC(OC)OC)cc3)c(=O)c2cc1OCC | inconclusive: -6.54% | – | – |
| COCCNC(=O)C1CCN(S(=O)(=O)N2CCC3(CC2)OCCO3)CC1 | inconclusive: -15.2% | – | – |
| O=C(NC(=S)Nc1ccc2c(c1)C(=O)c1ccccc1C2=O)c1ccc(F)cc1 | inconclusive: 8.05% | – | – |
| Cc1cccc(NC(=O)CCNC(=O)c2ccccc2Cl)n1 | inactive: 12.1% | – | – |
| CCC1CCCCN1CCCNC(=O)c1cc2c(=O)[nH]c3ccccc3c2n1C (stereo not given) | inconclusive: 14.7% | – | – |
| C/C=C(\C)c1nnc(NC(=O)c2ccco2)s1 | inconclusive: -44.9% | – | – |
| COc1ccc(Nc2ncnc3ccc(C)cc23)cc1 | inconclusive: -26.5% | – | – |
| CCN(CC)C(=O)C1CCCN(c2ccc([N+](=O)[O-])cc2/C=N/NC(=O)c2cccc(O)c2)C1 (stereo not given) | inconclusive: 24.1% | – | – |
| Cc1ccc(SCC(=O)Nc2ccc3c(c2)C(=O)NC3=O)cc1 | – | inconclusive: 3.66 µM [rising, single point] | – |
| CN(C(=O)CNC(=O)c1ccc(Br)o1)C1CCCCC1 | inconclusive: 342% | – | – |
| CC(C)N(C)C1CCN(C(=O)Nc2ccc(Cl)c(Cl)c2)CC1 | inconclusive: -107% | – | – |
| COc1ccc(CNC(=O)CN(C)S(=O)(=O)c2ccc3c(c2)c(=O)n(C)c(=O)n3C)cc1 | – | inconclusive: 18.4 µM [falling, single point] | – |
| Cc1ccccc1CSCC(=O)NNC(=S)NCC1CCCO1 (stereo not given) | inconclusive: 11.9% | – | – |
| CCCc1cc(=O)oc2cc(OC(=O)CN3C(=O)NC4(CCCC4)C3=O)ccc12 | inconclusive: 22.5% | – | – |

| SMILES | lipid storage change, negative = inhibition | Potency | outcome |
| --- | --- | --- | --- |
| N#CC1(NC(=O)COc2ccccc2[N+](=O)[O-])CCCCC1 | – | – | inactive [at 46.1 µM] |
| COc1ccccc1Cc1noc(C(C)(C)NC(=O)c2ccccc2)n1 | inconclusive: -12.6% | – | – |
| COc1ccc(S(=O)(=O)N2CCCC2CNC(=O)C(=O)Nc2cccc(F)c2)cc1 (stereo not given) | inconclusive: 17.8% | – | – |
| CCOC(=O)N1CCN(C(=O)CN(Cc2ccc(Cl)cc2)S(C)(=O)=O)CC1 | – | inconclusive: 18.4 µM [activator, single point] | – |
| COc1cccc(CN2CCN(CC#Cc3ccccc3)CC2CCO)c1 (stereo not given) | – | inconclusive: 29.1 µM [activator, single point] | – |
| CCOC(=O)C1CCCN(S(=O)(=O)c2c(C)[nH]c(C)c2C(=O)N2CCCC2)C1 (stereo not given) | – | inconclusive: 0.206 µM [falling, partial curve] | – |
| O=C(O)/C=C/c1coc2ccc(F)cc2c1=O | – | inconclusive: 0.231 µM [falling, full curve] | – |
| Cc1ccc(C2=[N+]([O-])C(C)(C)CC2)cc1 | inconclusive: 34.1% | – | – |
| O=c1c(Cl)c(N2CCOCC2)cnn1-c1ncc(C(F)(F)F)cc1Cl | inconclusive: 0.116% | – | – |
| Cc1ccn2c(C(=O)CSc3ccccc3)c(C)nc2c1 | inconclusive: 14.9% [at 9.22 µM] | – | – |
| Cc1ccc(OCC(=O)Nc2ccc(O)c(C(=O)O)c2)cc1C | inconclusive: -32.7% | – | – |
| COc1ccc(C2CC(c3ccccc3)Nc3nc(NC(=O)c4ccco4)nn32)cc1 (stereo not given) | inconclusive: 8.64% | – | – |
| CC1(NC(=O)Cn2cc(C(F)(F)F)ccc2=O)CCS(=O)(=O)C1 (stereo not given) | – | inconclusive: 3.66 µM [falling, single point] | – |
| Cc1ccc(Nc2ccc(N)cc2S(=O)(=O)O)cc1 | – | inconclusive: 29.1 µM [cytotoxic, single point] | – |
| O=C(CNS(=O)(=O)c1ccc(Br)cc1)Nc1ccc2c(c1)OCCO2 | inconclusive: 290% | – | – |
| CCOC(=O)/C(C#N)=C1/C=CN(c2ccccc2)C=N1 | inconclusive: -21.8% | – | – |
| CCOC(=O)N1CCC(NC(=O)CN2C(=O)CCSc3ccccc32)CC1 | inconclusive: 20.1% | – | – |
| Cn1cccc1C(=O)OCC(=O)c1cc2ccccc2o1 | inconclusive: -15.6% | – | – |
| Cc1cc(Br)c(NC(=O)C(C)Sc2nnnn2C)c(Br)c1 (stereo not given) | inconclusive: 0.119% | – | – |
| CCCN(Cc1nnc(-c2cccs2)o1)C(=O)c1cc(S(=O)(=O)N2CCOCC2)ccc1C | – | inconclusive: 0.92 µM [falling, full curve, poor fit] | – |
| Cn1cccc1Cc1nnc(SCC(=O)NC2CCCC2)n1-c1ccc(F)cc1 | inconclusive: 10.4% | – | – |
| COc1ccc(Cl)cc1NC(=O)C(C)N(C)Cc1ccc(C(F)(F)F)cc1 (stereo not given) | inconclusive: -52% | – | – |
| CCCCCCCSc1nnc(N)s1 | inconclusive: -0.238% | – | – |
| CCOc1ccc(CC(C(=O)NN)C(=O)NN)cc1CN(C)C | – | active: 18.4 µM | – |
| COc1ccc(CNC(=O)[C@H](CCSC)NC(=O)N2CCn3c2nc2ccccc23)cc1 | inconclusive: 36.7% | – | – |
| Cc1cc(NC(=O)C(C)SCC(=O)Nc2ccccc2OC(F)F)no1 (stereo not given) | inconclusive: -1.62% | – | – |
| O=C(NCc1cccnc1)C1CCN(S(=O)(=O)c2cccs2)CC1 | inconclusive: 14.8% | – | – |

Two records drawn at random from the list so far:

| SMILES | lipid storage change, negative = inhibition | Potency | outcome |
| --- | --- | --- | --- |
| O=C(O)/C=C/c1coc2ccc(F)cc2c1=O | – | inconclusive: 0.231 µM [falling, full curve] | – |
| Cn1cccc1C(=O)OCC(=O)c1cc2ccccc2o1 | inconclusive: -15.6% | – | – |

Carrying on.

| SMILES | lipid storage change, negative = inhibition | Potency | outcome |
| --- | --- | --- | --- |
| O/C(=C\Sc1nnc(Cc2ccccc2)o1)c1ccc(Br)cc1 | inconclusive: 32.9% | – | – |
| COC(=O)Cc1ccc(NC(=O)C(c2ccccc2)c2ccccc2)cc1 | inconclusive: 17.8% | – | – |
| CCOCCCNC(=O)C(NC(=O)Cc1cccs1)c1ccc(C)cc1 (stereo not given) | – | inconclusive: 0.651 µM [cytotoxic, single point] | – |
| CC1(c2ccccc2)NC(=O)N(Cc2ccc([N+](=O)[O-])cc2)C1=O (stereo not given) | inconclusive: 18.2% | – | – |
| CCCOc1ccc(C(=O)NCCCn2ccnc2)cc1 | inconclusive: -31.7% | – | – |
| Cc1cc(C)c2nc(NNC(=O)c3ccc(S(=O)(=O)N4CC(C)CC(C)C4)cc3)sc2c1 (stereo not given) | inconclusive: -22.1% | – | – |
| CC(C)(C)n1nnnc1C(c1ccc2ncccc2c1)N1CCSCC1 (stereo not given) | – | inconclusive: 0.0259 µM [activator, full curve, poor fit] | – |
| CC(C)c1ccc(-c2nc(N3CCCC3)nc3n[nH]c(N)c23)cc1 | – | inconclusive: 9.2 µM [activator, partial curve] | – |
| O=C(CCn1ccnc1)Nc1ccc2ccccc2c1 | inconclusive: 8.57% | – | – |
| COCCNc1nc2nonc2nc1N1C[C@H]2CC[C@H]1C2 | inconclusive: 13.1% | – | – |
| Cc1ccnc(NC(=O)c2ccc(NS(=O)(=O)/C=C/c3ccccc3)cc2)c1 | inconclusive: 7.03% | – | – |
| CN(CC(=O)Nc1cccc(F)c1)C(=O)CN1C(=O)NC2(CCCC2)C1=O | inconclusive: 7.14% | – | – |
| COC(=O)C1=CN(c2ccc(OC)cc2)C=C(C(=O)OC)C1c1ccc(C)c([N+](=O)[O-])c1 | inconclusive: 8% | – | – |
| Clc1ccc2c(NCc3ccccc3)ccnc2c1 | inconclusive: -100% | – | – |
| O=C(NCC1CCCO1)/C(=C\c1ccccc1)NC(=O)c1ccccc1 (stereo not given) | inconclusive: 11.9% | – | – |
| Cc1[nH]c(=O)[nH]c(=O)c1S(=O)(=O)N(C)Cc1ccccc1 | inconclusive: -6.16% | – | – |
| CC1(C)NC(=O)N(CC(=O)N2CCN(S(=O)(=O)c3ccccc3C(F)(F)F)CC2)C1=O | inconclusive: -21.7% | – | – |
| O=C(CC12CC3CC(CC(C3)C1)C2)N/N=C/c1ccncc1 | inconclusive: 25.3% | – | – |
| CC1CCN(C(=O)c2ccc(CSc3nc4ccncc4n3Cc3ccc(F)cc3)cc2)CC1 | inconclusive: -13.5% | – | – |
| CC(C)c1nc(N2CCOCC2)c(C#N)c2c1CCC2 | inconclusive: -8.8% | – | – |
| C=CCn1c(SCC(N)=O)nnc1-c1cnccn1 | – | inconclusive: 0.58 µM [falling, partial curve, poor fit] | – |
| COc1ccccc1N(CC(=O)Nc1ccccc1)S(=O)(=O)c1cccs1 | inconclusive: -18% | – | – |
| CC(=O)N/N=C(\C)c1cccc(NC(=O)c2cccs2)c1 | inconclusive: 6.65% | – | – |
| Cn1c(=O)c2c(nc(SCC(=O)N3CCCCCC3)n2C)n(C)c1=O | inactive: 2.93% | – | – |
| CCOc1ccc(-c2nnn(CC(=O)NCc3ccccc3)n2)cc1 | inconclusive: 5.53% | – | – |
| O=C(CNS(=O)(=O)c1ccccc1)N1CCc2ccccc2C1 | – | inconclusive: 6.51 µM [activator, partial curve] | – |

Shown as tab-separated lines: part of the list above
SMILES	lipid storage change, negative = inhibition	Potency	outcome
CC(C)N(C)C1CCN(C(=O)Nc2ccc(Cl)c(Cl)c2)CC1	inconclusive: -107%	–	–
Cc1cc(Br)c(NC(=O)C(C)Sc2nnnn2C)c(Br)c1 (stereo not given)	inconclusive: 0.119%	–	–
